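Luminescence from an EWS-FLI1 target-promoter (NR0B1) reporter, set against a CMV-promoter reporter, two days after silencing single genes in TC32 Ewing sarcoma cells. Each siRNA was applied at 20 nM. A z-score of the log NR0B1-over-CMV signal, less the median of siRNAs with the same seed; more negative means a stronger specific loss of the NR0B1 reporter.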

The strongest results of the screen are mostly left out here. Sequences are the guide (antisense) strand, without overhang.

UUUGAUACUGUCCACUUUC against RFTN2 gave seed-corrected z-score -0.7897.
UCAGCUGAGAAAAAGUGCC against HBD gave seed-corrected z-score 0.2327.
UAGGCAACCAGUAACCUUG against ASB4 gave seed-corrected z-score -0.4187.
AACCAGUCAAAGUCGUCGC against CHPF gave seed-corrected z-score 1.265.
UUACUUUCAGGUUAGCAGA against CARD8 gave seed-corrected z-score 0.903.
UGUAUGAAUCCUUCGAUGC against ZNF354A gave seed-corrected z-score -1.113.
AUAUAGACCACGGCAGGUG against HTRA2 gave seed-corrected z-score -0.5917.
UUCGGUGUCCUUGAUGAGC against PPP1R3F gave seed-corrected z-score 0.06429.
AACUUAGUCAAUACCAUCG against HSPA1L gave seed-corrected z-score -1.769.
AUCUCCAUCAUUAUCCGCC against OCM2 gave seed-corrected z-score 0.3948.
UCAGUUCUCCAGGUAAGGC against VPS26A gave seed-corrected z-score 0.3959.
UUAGCUUCACUUCGUUUCC against ECI2 gave seed-corrected z-score -0.1029.
UUUUCGUGUGGUGCUGUUG against GGT1 gave seed-corrected z-score -0.03534.
AUAAGAAACGGCUUUGUAG against CLDN18 gave seed-corrected z-score -0.1344.
UACAGGGAAAUGGUAAUGG against HEBP2 gave seed-corrected z-score 0.5091.
UGUCUAAAAACUUGCAGCC against MTRF1 gave seed-corrected z-score 0.3376.
CGUGGAGCGGUAGAAAUCC against MYCL gave seed-corrected z-score 1.37.
UUUCUCAUAUUCUCGUUUG against UBE2B gave seed-corrected z-score -1.073.
UUCUUUGCCGUUGAGCUGC against RBM14 gave seed-corrected z-score -0.7289.
UCAUGGCUCAUGAGGAACG against BSND gave seed-corrected z-score 0.7902.
UCAUGGUCUAGGUGCUUGU against ANGPTL4 gave seed-corrected z-score -0.2612.
UACUUCUGGAUGUACCAGC against NATD1 gave seed-corrected z-score -0.1076.
AAUGGUGAAUGAUCUUAGC against MROH2A gave seed-corrected z-score 0.7156.
UUCCAUUCCACUGAUGAGG against TMEM173 gave seed-corrected z-score 0.3277.
UGUAUGACGACCUUGACGG against NTSR1 gave seed-corrected z-score -0.303.
UGGGUUCAAACGUAUACAG against OSTF1 gave seed-corrected z-score 1.144.
UAAUGGUCCAGAUGCAAUC against NETO2 gave seed-corrected z-score 0.6813.
UGUGCGAACAGGAAAAUGA against FAM222A gave seed-corrected z-score -0.4319.

2 of the entries, repeated:

* AAUGGUGAAUGAUCUUAGC against MROH2A | seed-corrected z-score 0.7156
* UUACUUUCAGGUUAGCAGA against CARD8 | seed-corrected z-score 0.903

The results are deposited in PubChem (AID1159506; NCATS, 2015).